According to PMC12620021 (Nucleic Acids Research, 2025):
Results are given in words; binding and its absence hold for the method and conditions named. In cells and extracts the contact can be indirect. Some results given as binding are weak or reduced against the parent protein; the word gives no strength. Where a sequence is shown, tags or fusion partners need not be part of it.

Chains of the proteins cited; added tags and fusions are not shown. Residues count along the entry.
UniProt P9WF09, residues 2-85: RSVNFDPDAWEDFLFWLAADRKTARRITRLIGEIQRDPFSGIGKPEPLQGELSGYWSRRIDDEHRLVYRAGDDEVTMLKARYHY

Legend:
[1] = biological target: T1, RelB3(YefM) antitoxin with a C-terminal 6xHis-tag (from pETDuet-YefMHis-YoeB) (Mycobacterium tuberculosis H37Rv) (UniProt P9WF25); assay: pull-down
T1 sequence: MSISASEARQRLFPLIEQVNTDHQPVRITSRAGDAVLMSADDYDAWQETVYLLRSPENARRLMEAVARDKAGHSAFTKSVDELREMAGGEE

[2] = biological target: T2, RelB1His antitoxin (from pETDuet–RelB1His) (Mycobacterium tuberculosis H37Rv) (UniProt O50462); assay: pull-down
T2 sequence: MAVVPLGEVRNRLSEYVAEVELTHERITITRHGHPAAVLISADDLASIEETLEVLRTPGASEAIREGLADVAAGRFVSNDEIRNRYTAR

RelE3(YoeB) toxin (from pETDuet-YefMHis-YoeB) (from UniProt P9WF09 2-85)
binding [1]: binds

B1: RelE1 toxin (from pETDuet–RelB1His–RelE1) (protein, UniProt O50461 1-97)
chain: MSDDHPYHVAITATAARDLQRLPEKIAAACVEFVFGPLLNNPHRLGKPLRNDLEGLHSARRGDYRVVYAIDDGHHRVEIIHIARRSASYRMNPCRPR
binding [2]: binds
